Publication PMC10661826
These are yes or no findings as the source states them, for the method shown. Binding seen in cells or lysates may run through a third protein. Some entries that bind do so weakly or less than the wild type.

Chains of the proteins cited; added tags and fusions are not shown.
UniProt P60953: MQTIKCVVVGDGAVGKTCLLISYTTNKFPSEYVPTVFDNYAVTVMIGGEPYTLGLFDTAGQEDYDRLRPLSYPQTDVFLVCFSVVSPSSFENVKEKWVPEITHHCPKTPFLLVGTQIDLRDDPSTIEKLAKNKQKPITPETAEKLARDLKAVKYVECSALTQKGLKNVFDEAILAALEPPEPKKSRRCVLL
UniProt Q13153: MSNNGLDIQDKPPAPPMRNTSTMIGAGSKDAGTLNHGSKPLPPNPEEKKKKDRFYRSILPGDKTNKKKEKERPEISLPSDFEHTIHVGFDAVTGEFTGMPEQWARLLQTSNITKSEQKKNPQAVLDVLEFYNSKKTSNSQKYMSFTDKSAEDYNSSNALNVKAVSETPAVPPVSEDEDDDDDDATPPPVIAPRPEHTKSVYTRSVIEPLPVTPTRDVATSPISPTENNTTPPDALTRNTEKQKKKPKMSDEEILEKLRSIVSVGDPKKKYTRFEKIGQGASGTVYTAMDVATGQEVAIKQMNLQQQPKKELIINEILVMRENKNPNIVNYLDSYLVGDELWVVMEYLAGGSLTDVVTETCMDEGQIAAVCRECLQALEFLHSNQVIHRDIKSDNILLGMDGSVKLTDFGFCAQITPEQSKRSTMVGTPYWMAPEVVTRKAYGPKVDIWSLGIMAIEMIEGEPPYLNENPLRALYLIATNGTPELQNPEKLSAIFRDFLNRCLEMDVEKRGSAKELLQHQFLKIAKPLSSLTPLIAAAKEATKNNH

Molecular target: FLAG-CDC42 WT (cell division cycle 42) (human) (UniProt P60953)
Assay: co-IP; FLAG-CDC42 (WT or K16E) and HA-PAK1 co-expressed in HEK293T cells for 24 h; 500 ug lysate (Pierce IP lysis buffer with protease and phosphatase inhibitors) incubated with anti-FLAG magnetic agarose for 2 h at 4 °C; eluate blotted for PAK1

## p21-activated kinase (PAK)1, HA-PAK1 (from UniProt Q13153 1-545)
  binding: binds
